# The campaign covered roughly 340,000 compounds. About 170 (0.05%) were called active. This list was built around the results that the source calls inconclusive (neither active nor inactive); the mix of calls is not that of the screen. Calls come from the whole dose curve; as a rule, active = well fitted inhibition curve with a large enough effect in the signal ratio, with a control signal flat (not every such curve was filed as active); inconclusive = small, poorly fitted or top-dose-only effect, or effect the other way, or a change in a side signal; inactive = flat fitted curve, though single readings scatter; the % refers to the signal ratio. Potencies beside an inconclusive call are fits to weak or partial responses and may not hold up.
# Assay: qHTS Assay to Find Inhibitors of Chronic Active B-Cell Receptor Signaling;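 for activity change, negative = inhibition: plate controls were basal doxycycline-induced cells for no effect and cells given 10 µM MG132 for full effect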
# Conditions: ABC-DLBCL IkBa-CBG/CBR reporter, luminescence ratio (green luciferase fused to IkBa over red control in TMD8 lymphoma cells), 4 h; activity change, negative = inhibition: at 46.1 µM (top of the series)
# Outline: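 Concentration-response series (up to 46 uM) were applied to TMD8 dual-reporter cells for 4 h at 37C with doxycycline. Green/red ratio, after filter-overlap correction, defined %Activity; red signal alone was normalised to basal cells and zero luminescence.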
# Potency is the fitted concentration of half-maximal effect.
Compound,Potency,"activity change, negative = inhibition"
O=C(NC(=S)N1CCN(Cc2ccccc2)CC1)c1ccco1,"inconclusive: 25.1 µM [falling, single point]",–
Cc1onc(COc2ccccc2O)c1Br,–,inconclusive: 4.17%
Cc1ccc(-c2csc(N3CCC(C(N)=O)(N4CCCCC4)CC3)n2)cc1,–,inconclusive: 21%
O=C(Nc1cccc(Cl)c1)Nc1ccc2c(c1)OCO2,"inconclusive: 29.1 µM [falling, single point]",–
COc1ccccc1NC(=O)COC(=O)c1cc2ccccc2cc1O,–,inactive: -1.33%
Cc1ccc(N(C)C(=O)CCS(=O)(=O)c2cc3c(cc2Cl)NC(=O)CO3)cc1,"inconclusive: 14.1 µM [falling, partial curve, poor fit]",–
C(=N\Nc1ccccc1)/c1ccc(N2CCOCC2)cc1,–,inconclusive: -13.9%
CC1CC1C(=O)OCC(=O)c1c(N)n(C)c(=O)n(C)c1=O (configuration not stated),–,inconclusive: 11.7%
Cc1ccc(/C=C/C(=O)N2CCN(Cc3ccccc3)CC2)o1,–,inconclusive: -11.1%
CC(C)(C)C(Cn1ccnc1)NC(=O)c1ccc2nc(C3CC3)oc2c1 (configuration not stated),–,inconclusive: -1.14%
CC(C)c1ccc(Nc2nc(NCc3ccco3)nc(N3CCOCC3)n2)cc1,–,inconclusive: 16.5%
COc1ccccc1C(=O)NC(=Nc1nc2ccccc2o1)NC(=O)c1ccccc1OC,"inconclusive: 18.4 µM [falling, partial curve]",–
O=C(CSc1nnc(C2CC2)n1Cc1ccccc1)N1CCNC1=O,–,inactive: -0.572%
CC(C)/C=N/NC(=O)c1ccc(Cl)cc1,–,inconclusive: -13.3%
CC(C)Cn1c(N)c(C(=O)COC(=O)/C=C/c2ccccc2)c(=O)n(C)c1=O,–,inactive: 5.26%
CC[C@]12c3[nH]c4ccc(Cl)cc4c3CCN1C(=O)[C@@H](CC(=O)NCc1ccc(OC)c(OC)c1)C[C@@H]2C(=O)N1CCN(C(=O)c2ccco2)CC1,–,inactive: -1.21%
COc1ccc(OC)c(NC(=O)COC(=O)/C=C/c2ccc(Cl)cc2)c1,–,inactive: 1.21%
COC(=O)c1[nH]c2ccc(F)cc2c1NS(=O)(=O)c1ccc(OC)cc1,"inconclusive: 18.4 µM [falling, partial curve, poor fit]",–
CCN(CC)c1ccc(-n2cc3c(=O)n(C)c(=O)n(C)c3c2)cc1,–,inconclusive: 0.345%
O=C(NNC(=O)c1cc(Cl)ccc1[N+](=O)[O-])c1csc(N2CCOCC2)n1,"inconclusive: 16.4 µM [falling, partial curve]",–
CCOC(=O)N1CCN(C(=O)CSc2nc3c(cnn3-c3ccccc3)c(=O)[nH]2)CC1,–,inactive: -10.4%
O=C(NNC(=O)c1ccc(Br)s1)c1cccc(Cl)c1,"inconclusive: 18.4 µM [falling, partial curve]",–
CCCCN(CCCC)CCCNC(=O)CC1Oc2ccc(C)cc2NC1=O (configuration not stated),–,inconclusive: 8.41%
CCC(C)NC(=O)CSc1nc2cc3c(cc2c(=O)n1Cc1ccc(C(=O)NCCc2ccc(OC)c(OC)c2)cc1)OCO3 (configuration not stated),–,inconclusive: 23.7%
COc1cc(/C=N/NC(=O)CCn2cnc(-c3ccccc3)c2-c2ccccc2)ccc1O,"inconclusive: 20.6 µM [falling, partial curve]",–
CCc1ccc(C(=O)Cc2cc3cccc(OC)c3oc2=O)cc1,"inconclusive: 2.82 µM [falling, partial curve, poor fit]",–

Compound,Potency,"activity change, negative = inhibition"
Cc1nn(Cc2ccc(Cl)cc2Cl)c(C)c1NC(=O)NC12CC3CC(CC(C3)C1)C2,–,inactive: 1.24%
COc1ccc(CNn2c(-c3cccc(C)c3)nc3ccccc3c2=O)cc1OC,"inconclusive: 11.6 µM [rising, partial curve, poor fit]",–
COc1cc(OC)cc(-c2cc3cc(F)ccc3cn2)c1,–,inconclusive: -21.1%
CCCN(CCC)C(=O)CSc1nc2n[nH]c(C)c2c(=N)n1-c1ccc(OC)cc1,–,inconclusive: -4.76%
COc1ccc(NC(=O)Cn2ncc(Cl)c(Cl)c2=O)cc1S(=O)(=O)N1CCOCC1,–,inconclusive: 1.1%
CCOC(=O)CNC(=O)C1(c2ccccc2)CCCC1,"inconclusive: 0.13 µM [falling, partial curve, poor fit]",–
Nc1c(C(=O)Nc2ccc(S(=O)(=O)N3CCCC3)cc2)sc2nc3cc4c(cc3cc12)CCC4,–,inactive: 19.3%
Cc1ccc2nc(-c3ccc(Br)o3)oc(=O)c2c1,"inconclusive: 4.61 µM [rising, full curve, poor fit]",–
N/C(Cc1ccc(Cl)cc1Cl)=N\OC(=O)c1ccc(Br)o1,–,inconclusive: 6.49%
CCCC(=O)NCc1cc(-c2nn(C)c(=O)c3ccccc23)ccc1C,–,inactive: 0.881%
Cc1cc(C)c(C(N)=O)c(SCC(=O)c2cc(C)n(-c3cc(C)on3)c2C)n1,–,inactive: -0.578%
CS(=O)(=O)n1nc(-c2ccc(Cl)cc2)nc1SCc1ccccc1,"inconclusive: 3.26 µM [rising, partial curve, poor fit]",–
CN(Cc1c(C(=O)N(C)Cc2ccccc2)nc2ccccn12)CC1Cc2ccccc2O1 (configuration not stated),"inconclusive: 35.5 µM [falling, single point]",–
CCN(C(=O)COC(=O)c1cc(OC)ccc1Br)C1CCS(=O)(=O)C1 (configuration not stated),"inconclusive: 4.61 µM [falling, partial curve]",–
O=C(CSc1ccc(Br)cc1)Nc1cccc(S(=O)(=O)N2CCOCC2)c1,"inconclusive: 14.6 µM [falling, partial curve]",–
CC(=O)c1ccc(NC(=O)CN(C)S(=O)(=O)c2cc3c(cc2Cl)NC(=O)CO3)cc1,–,inactive: 0.383%
Cc1ccc(/C([O-])=C(/C(=S)Nc2ccc(SC(F)F)cc2)[n+]2ccccc2)cc1[N+](=O)[O-],–,inconclusive: 19.5%
CSCc1ccc(C(=O)Nc2cc(C)cc(C)c2)cc1,–,inconclusive: -22.7%
COc1ccccc1/C=C/C=N/NC(=O)CC1C(=O)NN=C1C (configuration not stated),"inconclusive: 17.8 µM [falling, partial curve]",–
CC(C)c1onc(C(=O)N2C(C)CCCC2C)c1[N+](=O)[O-] (configuration not stated),–,inconclusive: 1.16%
O=C(Nc1c(F)cc(F)cc1Br)C1CCCO1 (configuration not stated),–,inconclusive: 7.92%
COc1ccccc1N1CCN(/N=C(\C)c2ccccc2O)CC1,–,inactive: 8.6%
CCN1C(=O)C(CC(=O)Nc2ccc(OC)cc2)N(CCc2ccccc2F)C1=S (configuration not stated),"inconclusive: 25.1 µM [falling, single point]",–
COc1ccc([N+](=O)[O-])cc1NC(=O)C(C)Sc1ccc(C)cc1 (configuration not stated),"inconclusive: 5.17 µM [rising, partial curve, poor fit]",–
O=[N+]([O-])c1ccc(S(=O)(=O)N2CCN(c3ccc(N4CCOCC4)nn3)CC2)cc1,–,inconclusive: 1.29%
COc1cccc(-c2nn(C)c3sc(C(=O)NCc4ccco4)cc23)c1,–,inconclusive: 15%

# Part of the list above, tab-delimited:
Compound	Potency	activity change, negative = inhibition
CCN(C(=O)COC(=O)c1cc(OC)ccc1Br)C1CCS(=O)(=O)C1 (configuration not stated)	inconclusive: 4.61 µM [falling, partial curve]	–
O=C(CSc1ccc(Br)cc1)Nc1cccc(S(=O)(=O)N2CCOCC2)c1	inconclusive: 14.6 µM [falling, partial curve]	–

# An excerpt from above in order of formula weight, high to low.
Compound,Potency,"activity change, negative = inhibition"
O=C(CSc1ccc(Br)cc1)Nc1cccc(S(=O)(=O)N2CCOCC2)c1,"inconclusive: 14.6 µM [falling, partial curve]",–
COc1ccc(CNn2c(-c3cccc(C)c3)nc3ccccc3c2=O)cc1OC,"inconclusive: 11.6 µM [rising, partial curve, poor fit]",–
O=C(NC(=S)N1CCN(Cc2ccccc2)CC1)c1ccco1,"inconclusive: 25.1 µM [falling, single point]",–

# (more compounds)

Compound,Potency,"activity change, negative = inhibition"
Cc1c(N=Cc2cccnc2)c(=O)n(-c2ccccc2)n1C,–,inactive: -11%
O=C(O)c1ccccc1NC(=O)C1CCN(S(=O)(=O)c2cccc3nsnc23)CC1,–,inactive: 0.664%
Cc1cccc(CSCc2ccc(C(=O)NCCc3ccccc3)o2)c1,–,inconclusive: 9.44%
CC(C)c1ccc2oc3nc(N)c(C(=O)O)cc3c(=O)c2c1,"inconclusive: 35.5 µM [falling, single point]",–
C/C(Cc1ccccc1)=N\NC(=O)CNC(=O)c1ccccc1O,"inconclusive: 35.5 µM [falling, single point]",–
COc1cc(Cl)c(CN2CCCC(CO)(Cc3cccc(Cl)c3)C2)cc1OC (configuration not stated),–,inactive: -8.79%
Cc1ccccc1NC(=O)CNc1ccccc1C(=O)NCc1ccco1,"inconclusive: 4.61 µM [falling, full curve]",–
O=C1N=C(N2CCN(c3ccccc3)CC2)S/C1=C/c1cccs1,–,inconclusive: -23.7%
Cc1nc(N)sc1C(=O)Nc1ccccc1,"inconclusive: 22.4 µM [falling, partial curve, poor fit]",–
Cc1csc(SCC(=O)N2CCCC2)n1,–,inconclusive: 1.26%
COc1ccc(-n2c(C)cc(/C=C3\C(=O)NN(c4ccccc4)C3=O)c2C)cc1,–,inactive: 8.73%
Cc1cccc(NC(=O)CSc2nncn2-c2ccccn2)c1,–,inconclusive: -18.8%
CC(=O)N(Cc1ccccc1)c1ncc2c(n1)c(=O)c(C#N)c1ccccn12,"inconclusive: 23.1 µM [falling, single point]",–
Cc1ccccc1OC1C(=O)N(CC2CCCO2)C1c1ccc2c(c1)OCO2 (configuration not stated),–,inconclusive: -5.66%
CSc1nsc(SCC(=O)Nc2ccc(C(=O)O)cc2)n1,–,inconclusive: -18.7%
O=C(/C=C/c1ccccc1)Nc1cccnc1,"inconclusive: 25.1 µM [falling, single point]",–
COC(=O)Nc1ccccc1C(=O)N1CCCCC1,–,inconclusive: -1.46%
CCOC(=O)c1c(NC(=O)COC(=O)/C=C/c2ccccc2)sc(C(=O)NC)c1C,–,inconclusive: 2.91%
COc1ccccc1-n1cc(C(=O)NCC(=O)N2CCN(c3ccccc3)CC2)c2ccccc2c1=O,–,inactive: 8.17%
COC(=O)c1cn(C(=O)c2ccc(Cl)cc2)c2ccccc12,–,inconclusive: -9.04%
Cc1[nH]c2ccccc2c1SCCNC(=O)c1ccc(Br)o1,–,inconclusive: -10.9%
O=C1OC(/C=C/c2ccccc2)=NC/1=C/c1ccco1,"inconclusive: 32.6 µM [falling, single point]",–
COc1ccc(NC(=O)c2n[nH]c(=O)c3ccccc23)cc1S(=O)(=O)N1CCCCC1,–,inactive: -28.4%
CC(C)C[C@H](NC(=O)[C@@H]1Cc2c([nH]c3ccccc23)C2c3ccccc3C(=O)N21)C(=O)NCC1CCCO1 (some centres not stated),–,inconclusive: -0.0068%
COc1ccc(-c2noc(CSc3nc4ccccc4c(=O)n3-c3ccccc3)n2)cc1OC,–,inconclusive: 1.26%

# Source: PubChem BioAssay AID493014 (National Center for Advancing Translational Sciences (NCATS), 2011)
